For orientation: LD50 means the dose expected to kill half of the subjects tested. A high value points to lower toxicity.

This note sets out measurements from patent publication US4117139A, “Medicated compound for treating allergic diseases” (priority 1973, dated 1978).

Data set [1] is described as follows: Acute toxicity in mice. The conditions noted are these: mouse, in vivo.
Data set [2] deals with intoxication caused by histamine aerosol. Briefly: Histamine aerosol intoxication in guinea pigs. Format: in vivo. The conditions noted are these: same test conditions and doses, 1 hour after administration; control 55 (52-58) seconds; p of at least 0.05.

SMILES strings stand for the structures. Where a name gives a salt, the structure may show the parent alone.

With `CN(C)CCOC(c1ccccc1)c1ccccc1` [dimedrol, diphenhydramine hydrochloride, reference compound], the LD50 in data set [1] (iv) was 39 mg/kg; in data set [1] (po), 210 mg/kg. The “latent period of intoxication” value in data set [2] is on record as 173 (264-82) seconds.
